Assay results taken from publication PMC6051672.
No constants are given. Whether binding was seen depends on the method and setting. Some binding calls cover weakened binding; strength is not graded here. Values belong to the binder of their own block, whether it stands above or below them.

Target: T1, T18-YneA (Bacillus subtilis) (UniProt Q45056)
T1 sequence: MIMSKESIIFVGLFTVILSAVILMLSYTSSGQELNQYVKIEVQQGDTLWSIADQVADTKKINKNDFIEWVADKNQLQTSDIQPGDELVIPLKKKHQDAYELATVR
Test: two-hybrid; bacterial two-hybrid, T18 and T25 fusion plasmids co-transformed into E. coli BTH101; spotted on LB agar with ampicillin, kanamycin, 0.5 mM IPTG and 40 ug/mL X-gal; 30°C for 48 hours, then room temperature for 24 hours

- binding: binds
B1: T25-YlbL-S234A (enzyme, UniProt O34470 1-341)
chain: MLRKKHFSWMLVILILIAVLSFIKLPYYITKPGEATELASLIKVEGGYPEKGSLSLMTVKVGPANPFTYVWAKMHPYYEIVPDESIKEEGESDKEYMKRQLQMMKSSQENAVIAAYQKAGKKVSYSFNGIYASSVVENMPAKGKIEVGDKIISADGKNYQSAEKLIDYISSKKAGDKVTLKIEREEKEKRVTLTLKQFPDEPDRAGIGVSLYTDRNVKVEPDIDFEIENIGGPAAGLMMSLEIYNQLTKPDETKGYDIAGTGTIDVDGKVGPIGGIDQKVVAADKAGKDIFFAPNQNGASNSDYKNAVKTAKDIDSNMKIVPVDTMQDAIDYLNKLKAKST

- binding: binds
B2: T25-CtpA-S297A (enzyme, UniProt O34666 1-466)
chain: MKRQLKLFFIVLITAVVASALTLFITGNSSILGQKSASTGDSKFDKLNKAYEQIKSDYYQKTDDDKLVDGAIKGMIQSLDDPYSTYMDQEQAKSFDETISASFEGIGAQVEEKDGEILIVSPIKGSPAEKAGIKPRDQIIKVNGKSVKGMNVNEAVALIRGKKGTKVKLELNRAGVGNIDLSIKRDTIPVETVYSEMKDNNIGEIQITSFSETTAKELTDAIDSLEKKGAKGYILDLRGNPGGLMEQAITMSNLFIDKGKNIMQVEYKNGSKEVMKAEKERKVTKPTVVLVNDGTAAAAEIMAAALHESSNVPLIGETTFGKGTVQTAKEYDDGSTVKLTVAKWLTADGEWIHKKGIKPQVKAELPDYAKLPYLDADKTYKSGDTGTNVKVAQKMLKALGYKVKVNSMYDQDFVSVVKQFQKKEKLNETGILTGDTTTKLMIELQKKLSDNDTQMEKAIETLKKEM
